The supplement of paper PMC4749390
Structures can show the parent of a compound that is named as a salt. Some of the results follow. This data set is noisy: repeats of one test often differ as much as different tests do.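 Wild-type human LRH-1, a heavily sumoylated nuclear receptor, is tetracycline-inducible in stable JEG3 cells. RT-qPCR measured SUMO-sensitive APOC3 and MUC1 transcripts, which rise with SUMO-less LRH-1 or UBC9 knockdown, versus TBP and DMSO controls. Robust Z-scores beyond ±2 flagged primary hits, followed by toxicity and TBP filtering.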

These molecules were tested on JEG3 expressing hLRH-1 (assay: APOC3 transcript change (ddCt vs TBP and DMSO), Z-score over library; higher = higher APOC3 expression). Details: 10 µM; time (hr): 24.

Compared with `Nc1ccc(S(=O)(=O)Nc2ncccn2)cc1` [sulfadiazine], `CC(=O)Nc1ccc(S(=O)(=O)c2ccc(NC(C)=O)cc2)cc1` [acedapsone] is higher in “APOC3 transcript change (Z-score)” value: 0.25 for the first, 0.676 for the second.

First: CC1(C)C2CCC1(CS(=O)(=O)O)C(=O)/C2=C\c1ccc(/C=C2\C(=O)C3(CS(=O)(=O)O)CCC2C3(C)C)cc1 [ecamsule triethanolamine]
Second: Cc1ccc(S(=O)(=O)NC(=O)NN2CCCCCC2)cc1 [Tolazamide]
The “APOC3 transcript change (Z-score)” value of the first is lower: -0.135 for the first, 0.414 for the second.

Compared with `CCN(CC)CCOC(=O)C(Cc1cccc2ccccc12)CC1CCCO1` (stereo unspecified) [nafronyl oxalate], `CCN(CC)CCNC(=O)c1ccc(N)cc1` [Procainamide hydrochloride] is higher in “APOC3 transcript change (Z-score)” value: -0.625 for the first, -0.248 for the second.

Going from `Nc1cc(N2CCCCC2)nc(N)[n+]1[O-]` [Minoxidil] to `Nc1nc(O)c2ncn(COCCO)c2n1` [Acyclovir], the “APOC3 transcript change (Z-score)” value falls from 0.398 to -0.0831.

Compared with `COC(=O)Nc1nc2cc(Sc3ccccc3)ccc2[nH]1` [fenbendazole], `CN(C)CCOC(c1ccccc1)c1ccccc1.Cn1c(=O)c2[nH]c(Cl)nc2n(C)c1=O` [dimenhydrinate] is higher in “APOC3 transcript change (Z-score)” value: -0.802 for the first, -0.312 for the second.

First: CC(C(=O)O)c1ccc2c(c1)Cc1cccnc1O2 (stereo unspecified) [pranoprofen]
Second: CC(C)Cc1ccc([C@H](C)C(=O)O)cc1 [dexibuprofen]
The “APOC3 transcript change (Z-score)” value of the first is lower: 0.118 for the first, 1.03 for the second.

Compared with `CN1C(CCl)Nc2cc(Cl)c(S(N)(=O)=O)cc2S1(=O)=O` (stereo unspecified) [methyclothiazide], `O=C(O)C1=C(CSc2nnnn2CS(=O)(=O)O)CS[C@@H]2[C@H](NC(=O)[C@H](O)c3ccccc3)C(=O)N12` [cefonicid sodium] is higher in “APOC3 transcript change (Z-score)” value: -0.249 for the first, 0.5 for the second.

Going from `CC(=O)N(CC(O)CO)c1c(I)c(C(=O)NCCO)c(I)c(C(=O)NCC(O)CO)c1I` (stereo unspecified) [ioxilan] to `COC(=O)[C@H](Cc1ccccc1)NC(=O)[C@@H](N)CC(=O)O` [aspartame], the “APOC3 transcript change (Z-score)” value rises from -0.391 to 1.09.

Going from `NC[C@H](O)c1ccc(O)c(O)c1` [norepinephrine] to `CC(C)(C)NC[C@H](O)COc1ccccc1C1CCCC1` [penbutolol sulfate], the “APOC3 transcript change (Z-score)” value rises from -0.0168 to 0.417.

Compared with `CN[C@@H]1[C@@H](O[C@H]2O[C@H](CO)[C@@H](N)[C@H](O)[C@H]2O)O[C@H]2C[C@@H](N)[C@H](O[C@H]3[C@H](O)[C@@H](O)[C@H](N)C[C@@H]3N)O[C@@H]2[C@@H]1O` [apramycin sulfate], `CCOC(=O)[C@H](CCc1ccccc1)N[C@H]1CCc2ccccc2N(CC(=O)O)C1=O` [benazepril hydrochloride] is higher in “APOC3 transcript change (Z-score)” value: -0.128 for the first, 0.374 for the second.

`CN(C)CCN(Cc1ccc(Cl)cc1)c1ccccn1` [chloropyramine hydrochloride] was tested, and the “APOC3 transcript change (Z-score)” value was -1.18.
